Binding data for nine molecules are collected here from patent US7202329.

The chains behind the UniProt entries cited, without tags or fusion partners. Where a name states a change or a piece, a line headed by the entry shows the natural chain unless it says otherwise. Residues count along the entry.
UniProt Q99816: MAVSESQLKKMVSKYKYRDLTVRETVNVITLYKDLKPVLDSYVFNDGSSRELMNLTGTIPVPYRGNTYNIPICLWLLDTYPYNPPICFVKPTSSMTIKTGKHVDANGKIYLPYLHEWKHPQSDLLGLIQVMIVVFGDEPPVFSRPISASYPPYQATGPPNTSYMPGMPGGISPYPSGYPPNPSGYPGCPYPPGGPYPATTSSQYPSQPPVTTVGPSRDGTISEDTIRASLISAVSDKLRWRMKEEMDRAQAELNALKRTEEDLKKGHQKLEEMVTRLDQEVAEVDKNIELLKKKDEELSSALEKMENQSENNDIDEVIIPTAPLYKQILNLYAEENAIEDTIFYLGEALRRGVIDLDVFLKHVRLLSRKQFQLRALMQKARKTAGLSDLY
Tsg101 (aa 1-157): residues 1-157 of Q99816
Tsg101 (aa 12-326): residues 12-326 of Q99816
Tsg101 (aa 240-391): residues 240-390 of Q99816

Results are given in words; binding and its absence hold for the method and conditions named. Some results given as binding are weak or reduced against the parent protein; the word gives no strength.

For test [1], the target named is Tsg101 (aa 240-391) (human) (UniProt Q99816). Nature of the test: yeast two-hybrid, breast and prostate cancer library, bait printed as Tsg101 240-390.
The target is the same in test [2]. As to the kind of experiment: yeast two-hybrid.
In test [3] the target is Tsg101 (aa 1-157) (human) (UniProt Q99816). Nature of the test: yeast two-hybrid.
The target in test [4] is Tsg101 (aa 12-326) (human) (UniProt Q99816). Nature of the test: yeast two-hybrid, spleen library.
The target is the same in test [5]. As to the kind of experiment: yeast two-hybrid.

B1: Hook2 (amino acids 132-428) (protein, UniProt Q96ED9 132-428, looked up)
chain: IQRIMTLEESVQHVVMEAIQELMTKDTPDSLSPETYGNFDSQSRRYYFLSEEAEEGDELQQRCLDLERQLMLLSEEKQSLAQENAGLRERMGRPEGEGTPGLTAKKLLLLQSQLEQLQEENFRLESGREDERLRCAELEREVAELQHRNQALTSLAQEAQALKDEMDELRQSSERAGQLEATLTSCRRRLGELRELRRQVRQLEERNAGHAERTRQLEDELRRAGSLRAQLEAQRRQVQELQGQRQEEAMKAEKWLFECRNLEEKYESVTKEKERLLAERDSLREANEELRCAQLQP
Consider B1, for which the binding result in test [1] is reported as “binds”.

B2: keratin 5 (aa 335-473) (protein, UniProt P13647 335-473, looked up)
chain: LDSIIAEVKAQYEEIANRSRTEAESWYQTKYEELQQTAGRHGDDLRNTKHEISEMNRMIQRLRAEIDNVKKQCANLQNAIADAEQRGELALKDARNKLAELEEALQKAKQDMARLLREYQELMNTKLALDVEIATYRKL
In the case of B2, in test [2], the binding result is reported as “binds”.

B3: keratin 5 (aa 384-475) (protein, UniProt P13647 384-475, looked up)
chain: HEISEMNRMIQRLRAEIDNVKKQCANLQNAIADAEQRGELALKDARNKLAELEEALQKAKQDMARLLREYQELMNTKLALDVEIATYRKLLE
For B3, in test [2], the binding result is given as “binds”.

B4: keratin 5 (aa 9-171) (protein, UniProt P13647 9-171, looked up)
chain: FRSGGSRSFSTASAITPSVSRTSFTSVSRSGGGGGGGFGRVSLAGACGVGGYGSRSLYNLGGSKRISISTSGGSFRNRFGAGAGGGYGFGGGAGSGFGFGGGAGGGFGLGGGAGFGGGFGGPGFPVCPPGGIQEVTVNQSLLTPLNLQIDPSIQRVRTEEREQ
For B4, the binding entry in test [3] is “binds”.

B5: keratin 5 (aa 379-452) (protein, UniProt P13647 379-452, looked up)
chain: LRNTKHEISEMNRMIQRLRAEIDNVKKQCANLQNAIADAEQRGELALKDARNKLAELEEALQKAKQDMARLLRE
Take B5: the binding result in test [2] is on record as “binds”.

B6: keratin 5 (aa 347-485) (protein, UniProt P13647 347-485, looked up)
chain: EEIANRSRTEAESWYQTKYEELQQTAGRHGDDLRNTKHEISEMNRMIQRLRAEIDNVKKQCANLQNAIADAEQRGELALKDARNKLAELEEALQKAKQDMARLLREYQELMNTKLALDVEIATYRKLLEGEECRLSGEG
As to B6, the binding result in test [2] is “binds”.

B7: PIBF1 (aa 392-758) (protein, UniProt Q8WXW3 392-757, looked up)
chain: IDQLRNASREMYERENRNLREARDNAVAEKERAVMAEKDALEKHDQLLDRYRELQLSTESKVTEFLHQSKLKSFESERVQLLQEETARNLTQCQLECEKYQKKLEVLTKEFYSLQASSEKRITELQAQNSEHQARLDIYEKLEKELDEIIMQTAEIENEDEAERVLFSYGYGANVPTTAKRRLKQSVHLARRVLQLEKQNSLILKDLEHRKDQVTQLSQELDRANSLLNQTQQPYRYLIESVRQRDSKIDSLTESIAQLEKDVSNLNKEKSALLQTKNQMALDLEQLLNHREELAAMKQILVKMHSKHSENSLLLTKTEPKHVTENQKSKTLNVPKEHEDNIFTPKPTLFTKKEAPEWSKKQKMKT
Take B7: the binding entry in test [4] and in test [5] was “binds” in each case.

B8: keratin 5 (aa 324-446) (protein, UniProt P13647 324-446, looked up)
chain: VLSMDNNRNLDLDSIIAEVKAQYEEIANRSRTEAESWYQTKYEELQQTAGRHGDDLRNTKHEISEMNRMIQRLRAEIDNVKKQCANLQNAIADAEQRGELALKDARNKLAELEEALQKAKQDM
For B8, the binding entry in test [2] is given as “binds”.

B9: keratin 5 (aa 349-475) (protein, UniProt P13647 349-475, looked up)
chain: IANRSRTEAESWYQTKYEELQQTAGRHGDDLRNTKHEISEMNRMIQRLRAEIDNVKKQCANLQNAIADAEQRGELALKDARNKLAELEEALQKAKQDMARLLREYQELMNTKLALDVEIATYRKLLE
Consider B9, for which the binding result in test [2] is recorded as “binds”.
